Laboratory results from PubChem BioAssay AID192 (DTP/NCI, 2004).
The list shows only some results of the screen, not a fair sample: it gathers tests that were run many times, whatever their T/C, doses with no T/C, and many T/C values between a quarter and a half above the control. Other doses and runs of a compound stand elsewhere. T/C gives the treated animals as a percentage of the vehicle group. Some doses have a count of surviving animals in place of a T/C: the source holds a T/C of zero for them, seemingly a mark for toxic or unscored doses. Some survivor counts are full or nearly so, which does not show that the dose was tolerated: the source hardly ever lists a survival T/C far under the control, and the zero likely stands for such cases as well. Survivors were counted at the toxicity check, usually on the fifth day, unless a day is given; later deaths do not show. Schedules are NCI's codes, taken here to give the interval after Q, in days (D) or hours (H), and the number of doses after X. Some structures stand for samples that the source files as different forms (salt, stereo form or complex); doses refer to the form tested. Some entries were tested several times; the values are given in rising order. Where survival is the endpoint, this PubChem deposit counts one and a half times the control or more as active, and values a quarter to a half above the control carry no call in these data; other NCI protocols may use other cut-offs.

Test system: BDF1 mice, B16 melanoma ip, median survival T/C
Experiment: NCI In Vivo Anticancer Drug Screen. Data for tumor model B16 Melanoma (intraperitoneal) in B6D2F1 (BDF1) mice
Details: T/C endpoint: median survival time, higher T/C = longer survival
How it was run: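 Antitumor activity is assessed in mice bearing a transplanted tumor, with survival or tumor size compared against vehicle-dosed controls and expressed as T/C.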

[1] = dose: 100.0 mg/kg/injection, schedule: Q01DX009 (ip), vehicle: saline with Tween-80
[2] = dose: 200.0 mg/kg/injection, schedule: Q01DX009 (ip), vehicle: saline with Tween-80
[3] = dose: 400.0 mg/kg/injection, schedule: Q01DX009 (ip), vehicle: saline with Tween-80
[4] = dose: 400.0 mg/kg/injection, schedule: Q01DX009 (ip), vehicle: Klucel (hydroxypropylcellulose) (HPC)
[5] = dose: 200.0 mg/kg/injection, schedule: Q01DX009 (ip), vehicle: Klucel (hydroxypropylcellulose) (HPC)
[6] = dose: 0.78 mg/kg/injection, schedule: Q01DX009 (ip), vehicle: Klucel (hydroxypropylcellulose) (HPC)
[7] = dose: 1.5 mg/kg/injection, schedule: Q01DX009 (ip), vehicle: saline with Tween-80
[8] = dose: 12.0 mg/kg/injection, schedule: Q01DX009 (ip), vehicle: saline with Tween-80

Cc1ccc2c(C)c3ccc4ccccc4c3c[n+]2c1
survivor count (dose: 75.0 mg/kg/injection, schedule: Q01DX009 (ip), vehicle: saline with Tween-80): 5 of 6
survivor count (dose: 80.0 mg/kg/injection, schedule: Q01DX009 (ip), vehicle: saline with Tween-80): 6 of 6
survivor count (dose: 150.0 mg/kg/injection, schedule: Q01DX009 (ip), vehicle: saline with Tween-80): 6 of 6
survivor count (dose: 300.0 mg/kg/injection, schedule: Q01DX009 (ip), vehicle: saline with Tween-80): 1 of 6
survivor count (dose: 600.0 mg/kg/injection, schedule: Q01DX009 (ip), vehicle: saline with Tween-80): 3 of 6

CCCC1(CCC)c2ccccc2C(CCl)(OCC)c2ccccc21
survivor count (dose: 150.0 mg/kg/injection, schedule: Q01DX009 (ip), vehicle: other): 8 of 10

COc1cccc2c1C(=O)c1c(O)c3c(c(O)c1C2=O)C[C@@](O)(/C(C)=N\O)C[C@@H]3OC1CC(N)C(O)C(C)O1 (some centres undefined)
T/C (dose: 6.25 mg/kg/injection, schedule: Q01DX009 (ip), vehicle: water): 149 % of control
T/C (dose: 25.0 mg/kg/injection, schedule: Q01DX009 (ip), vehicle: water): 149 % of control
survivor count (dose: 50.0 mg/kg/injection, schedule: Q01DX009 (ip), vehicle: water): 6 of 10
survivor count (dose: 100.0 mg/kg/injection, schedule: Q01DX001 (ip), vehicle: water): 5 of 10
survivor count (dose: 200.0 mg/kg/injection, schedule: Q01DX001 (ip), vehicle: water): 0 of 10

CN(C)CC/C=C1\c2ccccc2CN(C)c2ccccc21
survivor count (dose: 50.0 mg/kg/injection, schedule: Q01DX009 (ip), vehicle: saline with Tween-80): 3 of 10
survivor count [1]: 0 of 10
survivor count (dose: 100.0 mg/kg/injection, schedule: Q01DX009 (ip), vehicle: saline): 10 of 10
survivor count [2]: 0 of 10
survivor count [3]: 0 of 10

Cc1ccc(N=Nc2c(O)ccc3ccccc23)c(C)c1
survivor count [4]: 10 of 10

ClCCN(CC#CCCCC#CCN(CCCl)CCCl)CCCl
T/C (dose: 6.25 mg/kg/injection, schedule: Q01DX009 (ip), vehicle: saline): 139 % of control
survivor count (dose: 50.0 mg/kg/injection, schedule: Q01DX009 (ip), vehicle: saline): 2 of 10

CC(C)c1ccc(C2CCCCC2O)cc1 (centres undefined)
survivor count [2]: 8 of 10

CCC(=O)[O][Bi]([c]1ccccc1)[c]1ccccc1
survivor count (dose: 48.0 mg/kg/injection, schedule: Q01DX009 (ip), vehicle: Klucel (hydroxypropylcellulose) (HPC)): 2 of 10

N#Cc1ccc(NC(=O)Nc2nccs2)cc1
T/C (dose: 25.0 mg/kg/injection, schedule: Q01DX009 (ip), vehicle: distilled water + Tween-80): 126 % of control
T/C (dose: 50.0 mg/kg/injection, schedule: Q01DX009 (ip), vehicle: distilled water + Tween-80): 131 % of control
T/C (dose: 100.0 mg/kg/injection, schedule: Q01DX009 (ip), vehicle: distilled water + Tween-80): 132 % of control
survivor count (dose: 200.0 mg/kg/injection, schedule: Q01DX009 (ip), vehicle: distilled water + Tween-80): 2 of 10

O=C(NC1CCCCC1)Oc1ccccc1-c1ccccc1
survivor count [5]: 6 of 6

O=Cc1ccc(C(Cl)(Cl)Cl)cc1
survivor count [3]: 3 of 10 and 9 of 10

CC(=O)NC(CCC(=O)C=[N+]=N)C(=O)O (centres undefined)
survivor count (dose: 0.4 mg/kg/injection, schedule: Q01DX009 (ip), vehicle: other): 6 of 6
survivor count (dose: 0.6 mg/kg/injection, schedule: Q01DX009 (ip), vehicle: other): 6 of 6
survivor count (dose: 0.8 mg/kg/injection, schedule: Q01DX009 (ip), vehicle: other): 6 of 6
survivor count (dose: 1.0 mg/kg/injection, schedule: Q01DX009 (ip), vehicle: other): 6 of 6

CC(=O)O[C@H]1CC[C@H]2[C@@H]3CC[C@H]4CC=C(C#N)C[C@]4(C)[C@H]3CC[C@]12C
survivor count (dose: 6.25 mg/kg/injection, schedule: Q01DX009 (ip), vehicle: Klucel (hydroxypropylcellulose) (HPC)): 10 of 10
survivor count (dose: 12.5 mg/kg/injection, schedule: Q01DX009 (ip), vehicle: Klucel (hydroxypropylcellulose) (HPC)): 10 of 10
survivor count (dose: 25.0 mg/kg/injection, schedule: Q01DX009 (ip), vehicle: Klucel (hydroxypropylcellulose) (HPC)): 10 of 10

COC(=O)/C(C#N)=N/O
survivor count (dose: 150.0 mg/kg/injection, schedule: Q04DX003 (ip), vehicle: saline): 10 of 10
survivor count (dose: 200.0 mg/kg/injection, schedule: Q01DX009 (ip), vehicle: saline): 9 of 10
survivor count (dose: 300.0 mg/kg/injection, schedule: Q04DX003 (ip), vehicle: saline): 10 of 10

C=C1C(=O)OC2CC(C)C3C=CC(=O)C3CC12 (centres undefined)
survivor count (dose: 4.69 mg/kg/injection, schedule: Q01DX009 (ip), vehicle: Klucel (hydroxypropylcellulose) (HPC)): 8 of 10
survivor count (dose: 9.38 mg/kg/injection, schedule: Q01DX009 (ip), vehicle: Klucel (hydroxypropylcellulose) (HPC)): 0 of 10
survivor count (dose: 18.75 mg/kg/injection, schedule: Q01DX009 (ip), vehicle: Klucel (hydroxypropylcellulose) (HPC)): 0 of 10

CC(=O)N(C)N=Nc1ccc(C)cc1
T/C (dose: 35.0 mg/kg/injection, schedule: Q01DX009 (ip), vehicle: Klucel (hydroxypropylcellulose) (HPC)): 127 % of control
T/C (dose: 70.0 mg/kg/injection, schedule: Q01DX009 (ip), vehicle: Klucel (hydroxypropylcellulose) (HPC)): 130 % of control

CN1C(=O)CCS(=O)(=O)C1c1ccc(Cl)cc1 (centres undefined)
survivor count (dose: 0.09 mg/kg/injection, schedule: Q01DX009 (ip), vehicle: Klucel (hydroxypropylcellulose) (HPC)): 10 of 10
survivor count (dose: 0.19 mg/kg/injection, schedule: Q01DX009 (ip), vehicle: Klucel (hydroxypropylcellulose) (HPC)): 10 of 10
survivor count (dose: 0.39 mg/kg/injection, schedule: Q01DX009 (ip), vehicle: Klucel (hydroxypropylcellulose) (HPC)): 10 of 10
T/C [6]: 140 % of control
survivor count [6]: 10 of 10
survivor count (dose: 1.56 mg/kg/injection, schedule: Q01DX009 (ip), vehicle: Klucel (hydroxypropylcellulose) (HPC)): 10 of 10

CSCCC(C)C
survivor count (dose: 200.0 mg/kg/injection, schedule: Q04DX003 (ip), vehicle: saline with Tween-80): 4 of 10

CC(=O)NC(CO)C(=O)c1ccc(S(=O)(=O)c2ccccc2)cc1 (centres undefined)
survivor count [3]: 10 of 10

COc1ccccc1NC(=O)Nc1ccc(C(C)C)cc1
survivor count (dose: 100.0 mg/kg/injection, schedule: Q01DX009 (ip), vehicle: Klucel (hydroxypropylcellulose) (HPC)): 5 of 6
survivor count [5]: 6 of 6
survivor count [4]: 6 of 6

Cc1cc(=O)n2c3c(c4c(cc13)c(CN(C)C)cc(=O)n4C)OC2
survivor count [1]: 4 of 10

O=C1NC(Cc2ccc(N(CCCl)CCCl)cc2)C(=O)O1 (centres undefined)
T/C (dose: 0.78 mg/kg/injection, schedule: Q01DX009 (ip), vehicle: saline with Tween-80): 126 % of control
T/C [7]: 138 % of control
T/C (dose: 1.56 mg/kg/injection, schedule: Q01DX009 (ip), vehicle: saline with Tween-80): 147 % of control
survivor count (dose: 6.25 mg/kg/injection, schedule: Q01DX009 (ip), vehicle: saline with Tween-80): 6 of 6
survivor count [8]: 10 of 10
survivor count (dose: 25.0 mg/kg/injection, schedule: Q01DX009 (ip), vehicle: saline with Tween-80): 6 of 6

Cl[C](Cl)(Cl)[Hg][c]1ccccc1
survivor count (dose: 0.75 mg/kg/injection, schedule: Q01DX009 (ip), vehicle: saline): 10 of 10
survivor count [7]: 10 of 10
survivor count (dose: 3.0 mg/kg/injection, schedule: Q01DX009 (ip), vehicle: saline with Tween-80): 10 of 10
survivor count (dose: 6.0 mg/kg/injection, schedule: Q01DX009 (ip), vehicle: saline with Tween-80): 10 of 10
survivor count [8]: 9 of 10
survivor count (dose: 24.0 mg/kg/injection, schedule: Q01DX009 (ip), vehicle: saline with Tween-80): 3 of 10

CCN(CC)c1nc(N(CC)CC)nc(N(CC)CC)n1
survivor count [1]: 10 of 10
survivor count [2]: 10 of 10
survivor count [3]: 2 of 10
